Assay results published in paper PMC5324674.
Changes are numbered by the printed parent chain. These are yes or no findings as the source states them, for the method shown. Some binding calls cover weakened binding; strength is not graded here. Tags and fused reporters may be left off the sequences shown.

Chains of the proteins cited; added tags and fusions are not shown.
UniProt Q8L7Z3: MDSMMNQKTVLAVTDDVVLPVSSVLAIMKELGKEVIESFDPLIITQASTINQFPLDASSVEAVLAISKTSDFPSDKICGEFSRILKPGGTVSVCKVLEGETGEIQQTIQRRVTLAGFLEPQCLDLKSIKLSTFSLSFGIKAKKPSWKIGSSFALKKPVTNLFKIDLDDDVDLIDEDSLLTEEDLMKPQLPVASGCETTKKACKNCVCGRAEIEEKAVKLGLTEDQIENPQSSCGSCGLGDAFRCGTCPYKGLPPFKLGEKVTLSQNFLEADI

Experiments:
Test in all cases: two-hybrid; Invitrogen ProQuest Two-Hybrid System with Gateway Technology; binary tests of BD and AD fusions; growth on dropout histidine medium with 100 mM 3-AT
[1] = target: T1, TAH18, ProQuest two‐hybrid fusion (Arabidopsis thaliana) (UniProt Q6NPS8)
T1 sequence: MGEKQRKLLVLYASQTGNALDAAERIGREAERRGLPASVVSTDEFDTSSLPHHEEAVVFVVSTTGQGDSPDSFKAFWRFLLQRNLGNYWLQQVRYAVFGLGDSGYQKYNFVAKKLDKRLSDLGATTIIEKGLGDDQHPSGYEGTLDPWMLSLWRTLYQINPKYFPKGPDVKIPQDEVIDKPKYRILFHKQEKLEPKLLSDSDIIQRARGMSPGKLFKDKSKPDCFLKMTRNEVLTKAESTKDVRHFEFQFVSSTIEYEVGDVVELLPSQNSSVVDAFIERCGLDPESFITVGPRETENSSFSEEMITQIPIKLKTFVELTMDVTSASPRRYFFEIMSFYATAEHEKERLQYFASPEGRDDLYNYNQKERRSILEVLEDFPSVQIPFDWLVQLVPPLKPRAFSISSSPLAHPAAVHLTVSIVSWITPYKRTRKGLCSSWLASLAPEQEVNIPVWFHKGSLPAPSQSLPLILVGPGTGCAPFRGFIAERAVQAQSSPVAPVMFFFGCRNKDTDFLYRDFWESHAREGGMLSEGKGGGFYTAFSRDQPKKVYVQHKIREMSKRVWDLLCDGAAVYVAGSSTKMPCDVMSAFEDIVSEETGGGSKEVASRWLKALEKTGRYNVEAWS

[2] = target: T2, NBP35‐C14A, ProQuest two‐hybrid fusion (Arabidopsis thaliana) (UniProt Q8H1Q2)
T2 sequence: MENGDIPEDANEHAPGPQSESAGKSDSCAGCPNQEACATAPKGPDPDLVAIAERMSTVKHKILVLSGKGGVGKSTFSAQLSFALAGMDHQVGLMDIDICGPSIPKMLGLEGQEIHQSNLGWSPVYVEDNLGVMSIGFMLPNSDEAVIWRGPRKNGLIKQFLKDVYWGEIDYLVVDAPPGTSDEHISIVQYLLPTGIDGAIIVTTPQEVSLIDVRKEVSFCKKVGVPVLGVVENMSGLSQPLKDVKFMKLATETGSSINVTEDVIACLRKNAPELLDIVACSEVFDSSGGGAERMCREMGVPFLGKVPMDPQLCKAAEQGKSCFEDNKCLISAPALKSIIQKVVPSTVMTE

[3] = target: T3, Nucleotide‐Binding Protein 35 kDa (NBP35), full‐length, ProQuest two‐hybrid fusion (Arabidopsis thaliana) (UniProt Q8H1Q2)
T3 sequence: T2 sequence with A14C

Substance: DRE2 (Derepressed for Ribosomal protein S14 Expression), full‐length, ProQuest two‐hybrid prey (from UniProt Q8L7Z3 1-272)
- binding [1]: binds
- binding [2]: binds weakly
- binding [3]: binds weakly
